From patent publication US10226048B2 (priority 2014, dated 2019)

Columns and labels:
[1] = Oxidization test of L-ascorbic acid
[2] = Oxidization ability against sodium thiosulfate

With `CC(=O)OO` [PAA, Peracetic Acid] the LAA oxidized ([1]; acidic solution (pH 2.3)) was 50%, the “time to complete oxidation of LAA” value ([1]; basic solution (pH 9.4)) was 5 min and the “time to complete oxidation of the STS intermediate” value ([2]; acidic solution (pH 2)) was “about 5 minutes”. For the same compound, the “time to complete oxidation of STS” value ([2]; basic solution (pH 9.3)) was 30 s.
